Source: paper PMC9394077
These are yes or no findings as the source states them, for the method shown. In cells and extracts the contact can be indirect. Some entries that bind do so weakly or less than the wild type.

Target: T1, CDKN2AIP (CDKN2A interacting protein) (mouse (endogenous in testis)) (UniProt Q8BI72)
T1 sequence: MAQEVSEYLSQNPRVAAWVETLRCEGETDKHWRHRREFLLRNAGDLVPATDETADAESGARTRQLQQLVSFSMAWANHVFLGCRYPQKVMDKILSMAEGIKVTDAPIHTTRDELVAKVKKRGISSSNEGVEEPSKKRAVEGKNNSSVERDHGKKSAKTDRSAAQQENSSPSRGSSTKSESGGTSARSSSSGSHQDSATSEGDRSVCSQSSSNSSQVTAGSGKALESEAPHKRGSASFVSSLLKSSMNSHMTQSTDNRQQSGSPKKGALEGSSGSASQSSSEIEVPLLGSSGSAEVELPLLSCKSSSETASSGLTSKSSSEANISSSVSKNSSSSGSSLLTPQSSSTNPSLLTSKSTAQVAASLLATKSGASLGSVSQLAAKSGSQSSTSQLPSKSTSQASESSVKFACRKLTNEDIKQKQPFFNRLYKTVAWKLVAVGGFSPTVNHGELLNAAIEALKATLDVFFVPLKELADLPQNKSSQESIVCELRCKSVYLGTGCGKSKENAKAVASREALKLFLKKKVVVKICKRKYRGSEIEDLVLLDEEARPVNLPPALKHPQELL
Test: co-IP; testis lysates from Cdkn2aip+/+ mice; immunoprecipitation with anti-CDKN2AIP antibody, western blot with anti-SUN1 antibody; IgG as control

B1: SUN1 (protein, UniProt Q9D666 1-913)
chain: MDFSRLHTYTPPQCVPENTGYTYALSSSYSSDALDFETEHKLEPVFDSPRMSRRSLRLVTTASYSSGDSQAIDSHISTSRATPAKGRETRTVKQRRSASKPAFSINHLSGKGLSSSTSHDSSCSLRSATVLRHPVLDESLIREQTKVDHFWGLDDDGDLKGGNKAATQGNGELAAEVASSNGYTCRDCRMLSARTDALTAHSAIHGTTSRVYSRDRTLKPRGVSFYLDRTLWLAKSTSSSFASFIVQLFQVVLMKLNFETYKLKGYESRAYESQSYETKSHESEAHLGHCGRMTAGELSRVDGESLCDDCKGKKHLEIHTATHSQLPQPHRVAGAMGRLCIYTGDLLVQALRRTRAAGWSVAEAVWSVLWLAVSAPGKAASGTFWWLGSGWYQFVTLISWLNVFLLTRCLRNICKVFVLLLPLLLLLGAGVSLWGQGNFFSLLPVLNWTAMQPTQRVDDSKGMHRPGPLPPSPPPKVDHKASQWPQESDMGQKVASLSAQCHNHDERLAELTVLLQKLQIRVDQVDDGREGLSLWVKNVVGQHLQEMGTIEPPDAKTDFMTFHHDHEVRLSNLEDVLRKLTEKSEAIQKELEETKLKAGSRDEEQPLLDRVQHLELELNLLKSQLSDWQHLKTSCEQAGARIQETVQLMFSEDQQGGSLEWLLEKLSSRFVSKDELQVLLHDLELKLLQNITHHITVTGQAPTSEAIVSAVNQAGISGITEAQAHIIVNNALKLYSQDKTGMVDFALESGGGSILSTRCSETYETKTALLSLFGVPLWYFSQSPRVVIQPDIYPGNCWAFKGSQGYLVVRLSMKIYPTTFTMEHIPKTLSPTGNISSAPKDFAVYGLETEYQEEGQPLGRFTYDQEGDSLQMFHTLERPDQAFQIVELRVLSNWGHPEYTCLYRFRVHGEPIQ
binding: binds
